Test results reported in patent publication US20170172944A1, “METHODS OF TREATING MELANOMA” (Mitchell Woods Pharmaceuticals, Inc., priority 2014, published 2017).
At least one structure is not confirmed: it was looked up by name or label, or the drawing left a doubt.

System: UACC-647 cells
Experiment: Migration and invasion towards 10% FBS (xCELLigence RTCA), UACC-647
Assay type: cell-based, human
Conditions: MNF 100 nM, Forskolin 10 μM, H-89 20 μM
Procedure: Assays were performed using xCELLigence RTCA Analyzer. Serum-starved cells were allowed to migrate or invade towards 10% FBS via bare microporous PET membrane or Matrigel-coated membrane, respectively.
Migration and Invasion Assay.
Migration and invasion of UACC-647, M93-047 and UACC-903 towards 10% FBS were monitored using xCELLigence system
Serum-starved UACC-647, M93-047 and UACC-903 cells were plated onto unmodified or Matrigel-coated CIM-Plates. The cells were treated with (R,R′)-MNF or vehicle (DMSO, 0.1%). Migration and invasion towards 10% FBS was monitored using xCELLigence RTCA station. Times of half-maximal infiltration of the cells towards serum were calculated and plotted against (R,R′)-MNF concentration.
ICI 118,551 and H-89 pretreatment blocked inhibitory activity of (R,R′)-MNF on UACC-647, while Forskolin mimicked (R,R′)-MNF. UACC-647 were serum-starved, pretreated with ICI 118,551, Forskolin, H-89 or DMSO and plated onto unmodified CIM-Plates. Migration towards 10% FBS was monitored using xCELLigence RTCA station. […] Forskolin (activator of adenylyl cyclase, 10 μM) mimicked MNF (100 nM). […] Pretreatment with H-89 blocked anti-migratory activity of MNF (100 nM).

With `C=C[C@@]1(C)CC(=O)[C@]2(O)[C@@]3(C)[C@@H](O)CCC(C)(C)[C@@H]3[C@H](O)[C@H](OC(C)=O)[C@@]2(C)O1` [Forskolin] the migratory rate was “mimicked MNF”.
